Our source for the CC50 values is PMC7761982, “FDA-Approved Drugs with Potent In Vitro Antiviral Activity against Severe Acute Respiratory Syndrome Coronavirus 2” (Pharmaceuticals, 2020).

The nature of the data set: in vitro. The note with it: African green monkey, CC50 (Vero-E6).

Compound `CC1=C(C(=O)O)N2C(=O)[C@@H](NC(=O)[C@H](N)c3ccccc3)[C@H]2SC1` [Cephalexin] returned a CC50 of 523 µM.
